To fix the notation:
T1: UNC-45-miniTurbo-HA (C. elegans) (UniProt G5EG62)
T1 sequence: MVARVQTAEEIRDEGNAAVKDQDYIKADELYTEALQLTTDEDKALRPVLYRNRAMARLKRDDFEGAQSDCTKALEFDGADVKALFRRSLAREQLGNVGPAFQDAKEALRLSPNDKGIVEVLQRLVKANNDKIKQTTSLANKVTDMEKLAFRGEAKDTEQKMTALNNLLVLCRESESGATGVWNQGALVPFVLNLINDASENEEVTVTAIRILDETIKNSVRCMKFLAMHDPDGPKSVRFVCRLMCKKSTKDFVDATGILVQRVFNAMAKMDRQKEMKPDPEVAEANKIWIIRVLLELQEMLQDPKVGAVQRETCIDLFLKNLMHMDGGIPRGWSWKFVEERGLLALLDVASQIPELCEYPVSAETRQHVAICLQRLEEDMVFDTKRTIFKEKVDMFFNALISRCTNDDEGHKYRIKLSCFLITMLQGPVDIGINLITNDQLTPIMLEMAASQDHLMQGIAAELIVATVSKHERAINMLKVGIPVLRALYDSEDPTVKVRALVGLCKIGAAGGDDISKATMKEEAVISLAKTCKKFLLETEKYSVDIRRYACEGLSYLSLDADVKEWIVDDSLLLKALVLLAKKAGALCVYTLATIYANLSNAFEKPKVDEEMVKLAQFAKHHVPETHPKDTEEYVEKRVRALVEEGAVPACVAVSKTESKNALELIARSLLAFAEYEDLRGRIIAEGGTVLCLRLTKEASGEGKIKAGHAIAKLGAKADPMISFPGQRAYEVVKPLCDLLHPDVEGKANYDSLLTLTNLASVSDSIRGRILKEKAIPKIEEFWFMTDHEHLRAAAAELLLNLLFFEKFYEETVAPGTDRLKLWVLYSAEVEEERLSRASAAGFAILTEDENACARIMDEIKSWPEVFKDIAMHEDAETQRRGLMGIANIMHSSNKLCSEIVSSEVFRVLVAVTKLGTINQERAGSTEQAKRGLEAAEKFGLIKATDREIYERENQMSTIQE

By UniProt entry, the sequences of proteins in these tests, tags left out. Where a name states a change or a piece, a line headed by the entry shows the natural chain unless it says otherwise.
UniProt P12844: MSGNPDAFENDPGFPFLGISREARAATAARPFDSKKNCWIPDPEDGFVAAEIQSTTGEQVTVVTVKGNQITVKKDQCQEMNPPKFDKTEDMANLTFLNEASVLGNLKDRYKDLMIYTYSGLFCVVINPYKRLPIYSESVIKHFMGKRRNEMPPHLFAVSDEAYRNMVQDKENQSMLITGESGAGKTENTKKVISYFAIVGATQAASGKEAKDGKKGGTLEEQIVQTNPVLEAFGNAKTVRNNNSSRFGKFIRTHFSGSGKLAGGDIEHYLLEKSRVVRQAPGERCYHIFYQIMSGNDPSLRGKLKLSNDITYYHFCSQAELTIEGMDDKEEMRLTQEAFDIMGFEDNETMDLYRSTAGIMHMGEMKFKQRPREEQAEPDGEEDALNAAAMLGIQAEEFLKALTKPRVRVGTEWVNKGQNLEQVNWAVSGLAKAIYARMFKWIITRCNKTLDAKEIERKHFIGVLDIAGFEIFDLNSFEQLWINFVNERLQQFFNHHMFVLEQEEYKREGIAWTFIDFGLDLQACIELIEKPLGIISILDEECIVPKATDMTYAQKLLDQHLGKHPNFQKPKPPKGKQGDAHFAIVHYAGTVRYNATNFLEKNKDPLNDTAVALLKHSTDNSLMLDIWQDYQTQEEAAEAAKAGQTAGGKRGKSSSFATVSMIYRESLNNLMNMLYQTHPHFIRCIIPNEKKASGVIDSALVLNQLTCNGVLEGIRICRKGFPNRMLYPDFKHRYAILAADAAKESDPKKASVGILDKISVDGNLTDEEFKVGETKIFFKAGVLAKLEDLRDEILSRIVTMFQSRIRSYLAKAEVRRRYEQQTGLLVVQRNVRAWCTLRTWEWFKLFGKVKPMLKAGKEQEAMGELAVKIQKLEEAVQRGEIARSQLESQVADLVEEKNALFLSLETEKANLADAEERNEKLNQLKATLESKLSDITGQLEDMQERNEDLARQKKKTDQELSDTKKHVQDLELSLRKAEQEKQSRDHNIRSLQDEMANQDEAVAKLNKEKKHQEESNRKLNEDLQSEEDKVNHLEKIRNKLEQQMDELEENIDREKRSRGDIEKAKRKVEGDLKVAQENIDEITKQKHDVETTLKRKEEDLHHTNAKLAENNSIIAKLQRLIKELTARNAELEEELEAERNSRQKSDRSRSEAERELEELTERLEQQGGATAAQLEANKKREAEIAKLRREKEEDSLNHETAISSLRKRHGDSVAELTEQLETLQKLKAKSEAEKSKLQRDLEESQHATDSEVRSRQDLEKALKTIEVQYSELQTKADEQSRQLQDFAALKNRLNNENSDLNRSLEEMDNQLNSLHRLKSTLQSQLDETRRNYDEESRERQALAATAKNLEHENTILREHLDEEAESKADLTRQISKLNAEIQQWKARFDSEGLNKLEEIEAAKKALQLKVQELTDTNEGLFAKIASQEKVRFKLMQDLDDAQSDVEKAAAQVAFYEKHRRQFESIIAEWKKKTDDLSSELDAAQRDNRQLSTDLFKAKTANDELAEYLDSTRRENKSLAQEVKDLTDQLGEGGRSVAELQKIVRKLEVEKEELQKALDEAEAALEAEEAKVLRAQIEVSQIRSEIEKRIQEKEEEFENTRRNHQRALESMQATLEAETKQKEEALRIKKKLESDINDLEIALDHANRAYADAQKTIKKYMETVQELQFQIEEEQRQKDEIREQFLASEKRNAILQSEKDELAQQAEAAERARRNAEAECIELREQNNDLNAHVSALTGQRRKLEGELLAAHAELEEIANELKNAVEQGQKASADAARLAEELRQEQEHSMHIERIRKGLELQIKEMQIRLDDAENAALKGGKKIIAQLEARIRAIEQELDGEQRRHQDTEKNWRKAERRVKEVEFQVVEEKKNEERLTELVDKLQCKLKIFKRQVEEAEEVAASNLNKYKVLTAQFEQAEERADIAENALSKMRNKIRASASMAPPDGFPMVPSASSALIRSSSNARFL
UniProt P02566: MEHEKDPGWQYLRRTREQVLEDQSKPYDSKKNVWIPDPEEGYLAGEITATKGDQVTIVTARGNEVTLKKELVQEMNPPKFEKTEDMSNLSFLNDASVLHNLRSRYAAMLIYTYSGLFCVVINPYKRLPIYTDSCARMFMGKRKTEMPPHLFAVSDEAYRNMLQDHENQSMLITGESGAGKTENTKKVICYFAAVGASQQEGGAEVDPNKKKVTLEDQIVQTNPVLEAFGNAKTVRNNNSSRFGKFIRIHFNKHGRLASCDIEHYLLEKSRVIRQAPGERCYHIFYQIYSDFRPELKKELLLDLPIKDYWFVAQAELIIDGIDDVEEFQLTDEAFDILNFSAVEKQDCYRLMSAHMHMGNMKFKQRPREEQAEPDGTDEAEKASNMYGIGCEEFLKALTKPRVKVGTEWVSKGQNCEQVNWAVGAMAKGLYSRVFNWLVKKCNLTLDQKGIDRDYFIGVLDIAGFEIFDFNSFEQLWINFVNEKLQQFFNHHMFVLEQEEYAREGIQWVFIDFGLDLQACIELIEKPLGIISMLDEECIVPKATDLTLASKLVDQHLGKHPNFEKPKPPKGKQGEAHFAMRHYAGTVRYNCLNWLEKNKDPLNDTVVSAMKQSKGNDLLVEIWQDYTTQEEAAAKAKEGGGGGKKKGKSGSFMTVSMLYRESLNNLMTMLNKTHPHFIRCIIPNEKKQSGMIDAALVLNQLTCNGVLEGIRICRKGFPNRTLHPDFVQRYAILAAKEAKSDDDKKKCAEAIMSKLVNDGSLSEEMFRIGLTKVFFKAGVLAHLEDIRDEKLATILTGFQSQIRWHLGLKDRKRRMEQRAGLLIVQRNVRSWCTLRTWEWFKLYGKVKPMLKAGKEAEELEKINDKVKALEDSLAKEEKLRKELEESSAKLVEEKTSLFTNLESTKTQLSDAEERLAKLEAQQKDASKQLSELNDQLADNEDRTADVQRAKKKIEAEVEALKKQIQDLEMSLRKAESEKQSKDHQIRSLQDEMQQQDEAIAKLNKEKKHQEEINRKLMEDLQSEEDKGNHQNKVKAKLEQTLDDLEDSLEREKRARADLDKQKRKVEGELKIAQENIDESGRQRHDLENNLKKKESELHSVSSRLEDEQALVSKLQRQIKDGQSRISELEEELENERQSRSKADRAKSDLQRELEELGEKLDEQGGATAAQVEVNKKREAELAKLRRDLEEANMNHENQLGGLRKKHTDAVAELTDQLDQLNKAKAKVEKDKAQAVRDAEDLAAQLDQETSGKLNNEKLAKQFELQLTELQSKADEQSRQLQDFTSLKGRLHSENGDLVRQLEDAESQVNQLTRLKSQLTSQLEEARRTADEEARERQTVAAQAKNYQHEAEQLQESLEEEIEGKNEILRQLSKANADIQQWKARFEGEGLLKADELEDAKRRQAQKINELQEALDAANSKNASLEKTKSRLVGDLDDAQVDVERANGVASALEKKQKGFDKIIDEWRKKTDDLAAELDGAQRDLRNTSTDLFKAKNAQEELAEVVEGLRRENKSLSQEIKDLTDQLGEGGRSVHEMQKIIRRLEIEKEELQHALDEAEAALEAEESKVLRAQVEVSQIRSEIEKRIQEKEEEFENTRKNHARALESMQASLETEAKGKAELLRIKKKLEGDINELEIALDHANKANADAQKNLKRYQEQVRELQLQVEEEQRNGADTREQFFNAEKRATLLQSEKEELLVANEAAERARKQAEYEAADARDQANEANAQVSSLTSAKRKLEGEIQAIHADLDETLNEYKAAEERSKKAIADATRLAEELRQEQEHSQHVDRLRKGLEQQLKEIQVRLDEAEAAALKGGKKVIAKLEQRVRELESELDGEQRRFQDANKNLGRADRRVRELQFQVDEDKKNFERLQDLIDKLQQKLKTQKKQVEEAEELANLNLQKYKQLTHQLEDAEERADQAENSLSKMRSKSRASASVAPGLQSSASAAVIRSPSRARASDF
UniProt O16266: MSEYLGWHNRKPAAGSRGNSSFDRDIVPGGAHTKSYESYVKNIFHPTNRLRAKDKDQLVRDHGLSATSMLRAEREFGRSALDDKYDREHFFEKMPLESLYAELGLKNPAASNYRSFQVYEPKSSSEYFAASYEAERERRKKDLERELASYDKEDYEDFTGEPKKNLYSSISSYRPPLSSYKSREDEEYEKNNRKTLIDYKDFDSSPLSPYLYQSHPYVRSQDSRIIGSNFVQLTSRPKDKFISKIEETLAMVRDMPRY

B1: HSP-16.41 (protein, UniProt P06581 1-143)
chain: MLMLRSPYSDSNALDHFLDELTGSVQFPYWRNADHNSFNFSDNIGEIVNDESKFSVQLDVSHFKPENLKIKLDGRELKIEGIQETKSEHGYLKRSFSKMILLPEDADLPSVKSAISNEGKLQIEAPKKTNSSRSIPINFVAKH
B2: HSP-16.48 (protein, UniProt P02513 1-143)
chain: MLMLRSPFSDSNVLDHFLDEITGSVQFPYWRNADHNSFNFSDNIGEIVNDESKFSVQLDVSHFKPEDLKIELDGRELKIEGIQEKKSEHGYSKRSFSKMILLPEDVDLTSVKSAISNEGKLQIEAPKKTNSSRSIPINFVAKH
B3: NHL-1 (endogenous) (protein, UniProt Q03601 1-974)
chain: MSSSPQNEAEAREKMRELMSRPPSSRPADFVNPLEKIEQLLTCPICLDRYKQPKLLPCQHTFCYPCLESCADTLHRNLKCPECRAEHNIPYDGVKAFQPNYTLTGFLEIHLQATPESAAEIEEYIHRYNLERCKICDEKADCEPCAHCDRKACKECRQTHMDMLKRDMSRLLNQVKRLANRITEASDNLSKGVDMMTMNCETTKAEIKEYFHRYQRDLKKKEDNFLMEVDTFQATETRNMSNLRDVLEIESSNMSEAVSRLDAAIKGECSIEDSELVRMKNTFTEGLEYLRNFQPDADELFNRKLRFSAGDDAAKLPAAITTSGELCVLVPQFSGRYLPLEQSYLPRPFRLPLESDSYRVKSDERASMRDREADRTSSRHSHRNPEPDESSIRYRRRQQLEDEAWNRLRNSSAAPSLLTTSVTADSSSRTSPWAADRVTRSVEPTKSRPTSLIVPNTETPRTVSPASKPPLPPQSVERVERTEDASPAPLPQLPIRKPPLPRQQSSNDDSLNEKVETIRRAHQQRQDASRAASRAVSSEESEGEDFPVSTNRGRIRIVCRAASVNRDDGLMSMIPGTGTIINVPPPQHQLPASAPITNGTSEQVAIPVTHFTGEEDESDIVVPAWLQRRRQRFQRSRTNPDIQAQFTSARVQQLLAERQSRLDSSTTTDEEKEKLAVLRQRGRSASREAGEWRARGRPRAVFGRKGAKDGELNWPRGICALSGGLVATCDSSNHRVCVFDKDGKFVRQFGGYGAGAGQLDSAAGLASSKLRVIVSDRYNHRISVFGLEGDHLFSFGGHGQGNAKFNNPWGVAVDDLGSIYVADKDNHRVQVFDKNGQFIAKFGSFGHLPGQLNSPLFIAVSRVTHHVYVSDSSNHRISVFDPHGVHLFSFGEEGFHGGQFKFPRGIAIDSQENLIIADSGNNRIQVFDAQGQFVSSFGTWGGGAGQLKGVEDVCVTADGSIVVTDRENHRIQIF
B4: HSP-16.11 (protein, UniProt P34696 1-145)
chain: MSLYHYFRPAQRSVFGDLMRDMAQMERQFTPVCRGSPSESSEIVNNDQKFAINLNVSQFKPEDLKINLDGHTLSIQGEQELKTEHGYSKKSFSRVILLPEDVDVGAVASNLSEDGKLSIEAPKKEAIQGRSIPIQQAPVEQKTSE
B5: HSP-16.2 (protein, UniProt P06582 1-145)
chain: MSLYHYFRPAQRSVFGDLMRDMALMERQFAPVCRISPSESSEIVNNDQKFAINLNVSQFKPEDLKINLDGRTLSIQGEQELKTDHGYSKKSFSRVILLPEDVDVGAVASNLSEDGKLSIEAPKKEAVQGRSIPIQQAIVEEKSAE
B6: MLC-3 (protein, UniProt P53014 1-153)
chain: MAPPSQDVLKEIFNLYDEELDGKIDGTQVGDVARAAGLKPTQAMVTKAAGQEFKRKGEKRLTFEEWLPMYEQLAKEKEQGTYADFYEGLKVFDKEETGKILAAELRHILLALGERLSADEADELLKGVEDGEGMVKYEDFIKKVLAGPFPDQD

No constants are given. Whether binding was seen depends on the method and setting. In cells and extracts the contact can be indirect. Here binding means that the protein was enriched with, or labelled near, the bait; the list need not be complete. Sequences can lack the tags named with a protein.

The target in the experiment is T1, UNC-45-miniTurbo-HA (C. elegans). Nature of the experiment: proximity labelling; UNC-45-miniTurbo-HA in body wall muscle of living worms; biotinylated proteins pulled down with streptavidin beads, label-free mass spectrometry; ratios against free TurboID (muscle cytosol) and UNC-45-FLAG (negative control); non-stress, and OptIMMuS mechanical stress (13 5-s blue light pulses, with or without ATR).
MYO-3 (from UniProt P12844 1-1969): the binding entry is recorded as “binds”. For “UNC-54 (myosin heavy chain B, MHC B) (from UniProt P02566 1-1963)”, the binding entry was “binds”.

Regarding “F40A3.6 (endogenous) (from UniProt O16266)”, the binding result was “binds”.

For the molecule B1, the binding entry is given as “binds”. The same measure for B2: “binds”; for B3: “binds”.

For the molecule B4, the binding entry is “binds”. The entry for B5 is “binds”; for B6 it is “binds”.

(Values after PMC11317515.)
